Results as given in paper PMC11702068, “NEK8 promotes the progression of gastric cancer by reprogramming asparagine metabolism” (Molecular Medicine, 2025).

Target: T1, Flag-tagged NEK8 (UniProt Q86SG6)
T1 sequence: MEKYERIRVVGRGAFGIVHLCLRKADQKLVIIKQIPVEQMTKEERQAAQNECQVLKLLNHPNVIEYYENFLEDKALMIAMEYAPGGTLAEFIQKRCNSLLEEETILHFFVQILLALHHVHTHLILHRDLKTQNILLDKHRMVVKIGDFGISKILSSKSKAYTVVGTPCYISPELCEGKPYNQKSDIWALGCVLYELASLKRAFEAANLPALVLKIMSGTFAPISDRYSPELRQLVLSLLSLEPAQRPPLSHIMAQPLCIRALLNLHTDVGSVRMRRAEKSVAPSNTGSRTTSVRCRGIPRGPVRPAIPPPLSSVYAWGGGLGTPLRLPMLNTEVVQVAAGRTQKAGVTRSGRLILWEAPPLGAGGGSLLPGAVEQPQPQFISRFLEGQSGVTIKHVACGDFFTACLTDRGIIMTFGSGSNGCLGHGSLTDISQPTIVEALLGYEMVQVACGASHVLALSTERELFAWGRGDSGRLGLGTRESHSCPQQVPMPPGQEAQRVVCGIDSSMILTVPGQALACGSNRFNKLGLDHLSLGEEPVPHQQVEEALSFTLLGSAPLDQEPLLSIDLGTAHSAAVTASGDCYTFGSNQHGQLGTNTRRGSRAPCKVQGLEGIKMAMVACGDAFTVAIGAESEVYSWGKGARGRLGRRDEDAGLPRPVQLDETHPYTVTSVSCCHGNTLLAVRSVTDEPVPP
Assay: affinity purification with mass spectrometry; Flag-NEK8 expressed in HGC27 cells, pulled down with Flag M2 agarose beads; wash 20 mM Tris-HCl, 150 mM KCl, 1 mM DTT, 0.05% NP-40, 1 mM EDTA, 15% glycerol, 0.2 mM PMSF; SDS-PAGE, bands excised, MS

- binding: binds
B1: asparagine synthetase (ASNS), endogenous (enzyme, UniProt P08243 1-561)
chain: MCGIWALFGSDDCLSVQCLSAMKIAHRGPDAFRFENVNGYTNCCFGFHRLAVVDPLFGMQPIRVKKYPYLWLCYNGEIYNHKKMQQHFEFEYQTKVDGEIILHLYDKGGIEQTICMLDGVFAFVLLDTANKKVFLGRDTYGVRPLFKAMTEDGFLAVCSEAKGLVTLKHSATPFLKVEPFLPGHYEVLDLKPNGKVASVEMVKYHHCRDVPLHALYDNVEKLFPGFEIETVKNNLRILFNNAVKKRLMTDRRIGCLLSGGLDSSLVAATLLKQLKEAQVQYPLQTFAIGMEDSPDLLAARKVADHIGSEHYEVLFNSEEGIQALDEVIFSLETYDITTVRASVGMYLISKYIRKNTDSVVIFSGEGSDELTQGYIYFHKAPSPEKAEEESERLLRELYLFDVLRADRTTAAHGLELRVPFLDHRFSSYYLSLPPEMRIPKNGIEKHLLRETFEDSNLIPKEILWRPKEAFSDGITSVKNSWFKILQEYVEHQVDDAMMANAAQKFPFNTPKTKEGYYYRQVFERHYPGRADWLSHYWMPKWINATDPSARTLTHYKSAVKA

Results are given in words; binding and its absence hold for the method and conditions named. Binding seen in cells or lysates may run through a third protein. These calls come from enrichment with a bait or labelling near it, and not all partners need be listed. Tags and fused reporters may be left off the sequences shown.
